In all, about 33,000 sequences were measured (“E-score (-0.5 to 0.5)”: median about -0.0034, highest 2% from about 0.25 on). The list shows a part of the results.
Target: T1, Yap3 (UniProt P38749)
T1 sequence: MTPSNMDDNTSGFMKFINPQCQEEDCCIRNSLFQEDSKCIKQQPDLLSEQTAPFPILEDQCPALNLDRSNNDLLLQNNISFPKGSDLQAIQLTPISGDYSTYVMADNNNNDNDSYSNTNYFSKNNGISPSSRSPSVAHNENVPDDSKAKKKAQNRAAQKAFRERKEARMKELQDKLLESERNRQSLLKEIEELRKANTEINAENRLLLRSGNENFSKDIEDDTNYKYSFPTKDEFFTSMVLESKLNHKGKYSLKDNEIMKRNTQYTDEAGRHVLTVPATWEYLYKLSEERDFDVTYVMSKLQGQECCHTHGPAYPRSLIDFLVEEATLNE
Assay: PBM E-score (8-mer binding enrichment) (E-score (-0.5 to 0.5)); higher = stronger / more preferred TF binding
Conditions: protein concentration: 100 nM; construct: GST-full length
In short: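 Universal all-10-mer Agilent arrays, double-stranded by primer extension on fresh or once-stripped slides, were probed with about 100-200 nM GST-tagged yeast transcription factors made by PURExpress. Fluorescent anti-GST detected bound protein, and masliner normalised the scans. E-scores from the Universal PBM Analysis Suite were given to each ungapped eight-base word pooled with its reverse complement.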

Sequence	PBM E-score
ACCAGAAC	0.0271
AGAAAGGA	-0.123
ATTTAACA	0.195
GAGAGGAA	0.128
CGCGTCAG	-0.135
ATACTCAT	0.0558
GAAGGGAA	-0.19
AACTCGAG	0.139
CTTAATAC	0.0534
ACCTCTCC	-0.165
CGTCTCAG	-0.00621
AAAGATCG	-0.00787
GAGAATCC	-0.102
TAAGACTA	-0.0149
GAATTTGA	0.15
CGATGATA	0.0199
CAGATTAC	0.135
ACGATGTA	0.0868
CAGGGTCC	-0.29
ACAGTGGA	0.041
CGAGCGTA	-0.0301
CATAGCTC	-0.0875
CCCCCGCA	-0.305
AGTCACAG	0.0936
TTACGCAA	0.223

Random excerpt: seven records from the list, in no set order.
Sequence	PBM E-score
CGTCTCAG	-0.00621
ATACTCAT	0.0558
AACTCGAG	0.139
CGCGTCAG	-0.135
CGAGCGTA	-0.0301
ATTTAACA	0.195
TAAGACTA	-0.0149

Additional entries

Sequence	PBM E-score
CAGAAAGG	-0.115
AACAGTGA	0.0184
GTACAGTA	0.0574
CGATGGCA	-0.145
CGCAATAG	0.105
ACCGACGG	-0.0314
CAATACCC	0.0449
TCCGAAGA	-0.0515
CTGTGTTC	0.0199
AACGCATA	0.132
TACGCTCA	0.103
CAGGGAAG	-0.179
CGGAGAAC	0.0479
TAGCACAA	0.0453
TGGCGAAA	0.0657
CTTCAATA	0.105
GCGTCCAA	-0.0598
GTGATAAA	0.0592
GGAGCTAC	-0.192
AGAGTCTG	-0.234
ACGCTCGC	0.0373
GTCCACGA	-0.115
AGCTAATC	0.114
TAGCCAGA	0.0046
TGTTACAA	0.233

Sequence	PBM E-score
GTACTCGA	-0.0163
GAGATCTA	-0.0844
CATATGAA	0.132
AGCCCAGC	-0.225
ACAGGGAA	-0.0163
AATTGTAA	0.066
AAGAACCC	-0.0342
GAGTGTCA	0.0969
AGAGTGCA	-0.118
TAGACGAA	0.00243
ATTTACCC	0.186
GGAGTGTA	-0.206
CCCAATAC	-0.00303
ACCATAAA	0.141
ATTAACAC	0.273
CTTTGGTA	-0.173
CCCAAGCG	-0.0714
AACTTGTA	0.0466
GCCCACCA	-0.0896
CATAACAG	0.107
CTTAAAGA	-0.0487
AGGAACGG	-0.045
TGGTAAAA	0.177
ACTAAGAT	0.255
GCGAGTGA	0.00111

Sequence	PBM E-score
AACATCAA	0.164
CGTAGGTC	-0.316
AATGCAAG	0.0231
CGTCTCAC	0.022
CGAGAGAC	-0.146
CAATCCGC	0.0216
ATACCTAT	0.124
ATAGAGGG	-0.0352
ACTTCTCC	-0.174
TCCCGCCA	-0.173
GGCTTATA	-0.00779
ACCGAGTA	0.0231
TATTGCGA	0.113
CTGGTATA	-0.0636
ATATATTG	0.0595
GAGCTGAA	-0.121
AATCACGC	0.0615
ATTGGGCG	-0.105
CTATTTAC	0.238
AAGATTAA	0.167
GAAACCTA	-0.0189
GACCCTTA	-0.199
CATTCCTC	0.0145
CATCACGC	-0.0538
ATGCTTAA	0.0675

Sequence	PBM E-score
AAGCTACA	0.0166
ACTACAGT	0.0926
CAAGCCTG	-0.113
ATGTTGCC	-0.0527
GCGTTCAC	-0.0294
GAGTCTGA	-0.176
ATTTGTAC	0.0689
CATAGACA	0.0318
AGCGGCCC	-0.374
AAATGCGT	0.162
TCATGTAA	0.196
CGACACAG	-0.044
AGCATGCT	-0.134
CCCAACAA	0.0572
ATTATTAG	0.259
GGTCTCAA	-0.131
GCCTGTGA	-0.192
GTCGTCAC	-0.0421
ACGGTGAA	0.15
CTAGATCC	-0.0756
CCTAAACC	-0.0339
ATTAGGTC	0.286
AGCACTTA	-0.0855
CTACGTTA	0.0868
GTTGTTCA	-0.0828

Sequence	PBM E-score
TAGTACTA	0.0913
GAATTAAA	0.00976
ACCGCCGG	-0.285
TTCTCAAA	0.156
CCAGTTTC	-0.063
CCACGGAG	-0.0187
AAGCTAAG	-0.219
TCCAAGAA	-0.0303
CACCCAGG	-0.289
CACATACA	-0.0173
ATTTTGGG	-0.0152
CAAACTTA	0.209
CTAAACCC	0.00034
GGTCGTCA	-0.0105
AACTACCA	0.119
CACCACGG	-0.366
GCTCTGCA	-0.287
AAGCTTAA	0.105
ACACCTCT	0.0264
CTCCCATC	0.0634
GCCACGGA	-0.109
AACAACTT	0.185
CAGAGACA	-0.245
GACTATCC	-0.189
ATTAGTAG	0.123

Sequence	PBM E-score
GCTGCAAA	0.142
TTATGAAA	0.204
AGCTCGTC	-0.158
CGGCCTCA	-0.0347
ACAACTTC	0.247
ACACTTTG	0.0475
GAATTAGA	0.136
GTGGGAAA	0.118
CAACGACC	0.0111
CCGATTCA	-0.0345
AGGACCCC	-0.197
CGGGCCCA	-0.341
CCGCAAAA	0.076
ATTAGACC	-0.176
CCGGGTAC	-0.22
CTCACCCA	-0.0382
ACCTCTTG	-0.188
TAGCACGA	-0.0214
CTACACTC	-0.135
TGCTACCA	-0.129
AACCCGAA	-0.0324
ATTTGCGG	0.0995
CCGATGCC	-0.0142
TAGCGAGA	-0.0444
AATCGAAG	0.256

Shown comma-delimited: entries from further up.
Sequence,PBM E-score
CGGGCCCA,-0.341
CCGCAAAA,0.076
ATTAGACC,-0.176
CCGGGTAC,-0.22

2 entries from above, with each value named.
ACAACTTC
  PBM E-score: 0.247
ACACTTTG
  PBM E-score: 0.0475

Remaining list, next part.

Sequence	PBM E-score
ATGGCTGA	-0.0094
CGCCGGAC	-0.191
CAATCCTG	0.0137
CACTCCGG	-0.00027
AGACCCGA	0.023
CCGCGTCA	-0.161
AACCCTCT	-0.239
AGCCTAGC	-0.091
TACTAGTA	0.127
AATTATCG	0.267
TGCGCACA	0.0919
ATATTACC	0.276
GAGGTCCC	-0.281
CAGCCGCC	-0.177
ACTAGAGC	0.0444
ACATAGGA	-0.0244
GCTCTCGA	-0.113
GAGTTCGA	0.123
AATCGGGG	-0.146
CGCGGGGC	-0.197
GCTAGCAA	-0.061
AGAAGAAA	0.0399
AATATAGC	0.133
GCTAACTA	0.172
AGTACGAG	0.0722

Sequence	PBM E-score
CGACTTAG	-0.0491
AACGGCGT	0.0396
GAGTTTAC	-0.103
ACTCCAGT	0.0145
CTACTGTC	0.134
ACCAAACG	-0.0718
ACTAACAT	0.242
GCCCCTTA	-0.145
ACTCTTCG	-0.028
GCCCTAAA	-0.249
CCATTTCA	-0.0292
AGCAGATG	-0.0141
CGTGACAC	0.0299
TATAGAGA	-0.0187
CGCGACTC	-0.0858
AAAGCGGG	-0.0861
AATCGAAA	0.0602
CTCATGTA	0.0517
GCAACGAC	-0.0831
